Publication PMC10083355
Results are given in words; binding and its absence hold for the method and conditions named. A result given as binding can be weak or reduced; the word gives no strength.

The chains behind the UniProt entries cited, without tags or fusion partners. Where a name states a change or a piece, a line headed by the entry shows the natural chain unless it says otherwise.
UniProt Q884Y2: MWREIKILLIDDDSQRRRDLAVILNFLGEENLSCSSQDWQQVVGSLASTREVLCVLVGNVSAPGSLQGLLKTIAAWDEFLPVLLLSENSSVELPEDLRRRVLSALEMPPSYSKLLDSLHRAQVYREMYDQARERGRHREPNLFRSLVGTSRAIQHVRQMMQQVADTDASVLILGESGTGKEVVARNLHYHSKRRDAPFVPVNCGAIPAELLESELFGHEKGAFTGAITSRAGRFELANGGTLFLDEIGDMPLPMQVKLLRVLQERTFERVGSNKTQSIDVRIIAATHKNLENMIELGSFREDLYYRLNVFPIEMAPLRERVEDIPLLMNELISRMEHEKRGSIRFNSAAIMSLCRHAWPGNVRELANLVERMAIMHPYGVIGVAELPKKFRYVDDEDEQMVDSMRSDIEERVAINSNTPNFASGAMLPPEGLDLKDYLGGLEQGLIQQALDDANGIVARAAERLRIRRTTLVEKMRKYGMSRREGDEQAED
UniProt Q884V8: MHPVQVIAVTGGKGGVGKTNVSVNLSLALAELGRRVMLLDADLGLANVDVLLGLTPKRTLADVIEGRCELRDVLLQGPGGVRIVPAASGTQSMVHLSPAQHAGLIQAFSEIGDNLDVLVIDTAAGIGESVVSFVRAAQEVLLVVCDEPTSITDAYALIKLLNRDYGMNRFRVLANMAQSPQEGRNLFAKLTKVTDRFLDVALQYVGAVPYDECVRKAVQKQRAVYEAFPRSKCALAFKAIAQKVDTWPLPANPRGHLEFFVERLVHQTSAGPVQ

Target: FleQ from Pseudomonas syringae pv. tomato DC3000 (Pseudomonas syringae pv. tomato DC3000) (UniProt Q884Y2)
Experiment: native gel or EMSA; supershift of the FleQ-DNA band on a 32P-labelled wssA1-2 promoter fragment; 1 uM FleQ and 1 uM FleN (equimolar), with or without 0.5 mM ATP and 0.5 mM c-di-GMP; STAD buffer (25 mM Tris-acetate pH 8.0, 8 mM Mg-acetate, 10 mM KCl, 3.5% PEG-8000, 1 mM DTT) with poly(dI-dC) and BSA; 30 min at 4°C; 4% native polyacrylamide gel in Tris-glycine; both purified

binding: binds
Substance: His6-FleN from Pseudomonas syringae pv. tomato DC3000 (from UniProt Q884V8)
